Data: the supplement of paper PMC8728848
The other results are listed elsewhere or left out.

What was measured:
Assay in all cases: glycan array binding signal (z-score within array); higher = stronger binding
Conditions in all cases: glycan notation: IUPAC condensed, linker removed
[1] = biological target: Fuc(a1-2)[GalNAc(a1-3)]Gal(b1-3)GlcNAc(b1-6)GalNAc
Method in brief: (§1)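 The binding signal is a Z-score computed within each array and averaged over linkers. Arrays of the same protein sequence at different concentrations or buffers were also averaged together. Data originate from 3228 arrays in the Consortium for Functional Glycomics database, kept only where the protein sequence was available.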

[2] = biological target: Fuc(a1-2)[GalNAc(a1-3)]Gal(b1-4)Glc
Method in brief: as §1

[3] = biological target: Fuc(a1-2)[GalNAc(a1-3)]Gal(b1-4)GlcNAc
Method in brief: as §1

[4] = biological target: Fuc(a1-2)[GalNAc(a1-3)]Gal(b1-4)GlcNAc(b1-2)Man
Method in brief: as §1

[5] = biological target: Fuc(a1-2)[GalNAc(a1-3)]Gal(b1-4)GlcNAc(b1-2)Man(a1-3)[Fuc(a1-2)[GalNAc(a1-3)]Gal(b1-4)GlcNAc(b1-2)Man(a1-6)]Man(b1-4)GlcNAc(b1-4)GlcNAc
Method in brief: as §1

[6] = biological target: Fuc(a1-2)[GalNAc(a1-3)]Gal(b1-4)GlcNAc(b1-2)Man(a1-3)[Fuc(a1-2)[GalNAc(a1-3)]Gal(b1-4)GlcNAc(b1-2)Man(a1-6)]Man(b1-4)GlcNAc(b1-4)[Fuc(a1-6)]GlcNAc
Method in brief: as §1

[7] = biological target: Fuc(a1-2)[GalNAc(a1-3)]Gal(b1-4)GlcNAc(b1-3)Gal(b1-4)GlcNAc
Method in brief: as §1

[8] = biological target: Fuc(a1-2)[GalNAc(a1-3)]Gal(b1-4)GlcNAc(b1-3)Gal(b1-4)GlcNAc(b1-3)Gal(b1-4)GlcNAc
Method in brief: as §1

[9] = biological target: Fuc(a1-2)[GalNAc(a1-3)]Gal(b1-4)GlcNAc(b1-3)GalNAc
Method in brief: as §1

[10] = biological target: Fuc(a1-2)[GalNAc(a1-3)]Gal(b1-4)GlcNAc(b1-3)[Fuc(a1-2)[GalNAc(a1-3)]Gal(b1-4)GlcNAc(b1-6)]GalNAc
Method in brief: as §1

[11] = biological target: Fuc(a1-2)[GalNAc(a1-3)]Gal(b1-4)GlcNAc(b1-6)GalNAc
Method in brief: as §1

[12] = biological target: Fuc(a1-2)[GalNAc(a1-3)]Gal(b1-4)[Fuc(a1-3)]GlcNAc
Method in brief: as §1

[13] = biological target: Fuc(a1-2)[GalNAc(a1-3)]Gal(b1-4)[Fuc(a1-3)]GlcNAc(b1-3)GalNAc
Method in brief: as §1

[14] = biological target: Fuc(a1-2)[GalNAc(a1-4)]Gal(b1-4)GlcNAc
Method in brief: as §1

[15] = biological target: Fuc(a1-2)[GalNAc(b1-3)]Gal
Method in brief: as §1

Fuc(a1-3)GlcNAc = biological target: Fuc(a1-3)GlcNAc
Method in brief: as §1

[16] = biological target: Fuc(a1-3)[Gal(b1-4)]Glc6S
Method in brief: as §1

[17] = biological target: Fuc(a1-3)[Gal(b1-4)]GlcNAc
Method in brief: as §1

[18] = biological target: Fuc(a1-3)[Gal(b1-4)]GlcNAc(b1-2)Man
Method in brief: as §1

[19] = biological target: Fuc(a1-3)[Gal(b1-4)]GlcNAc(b1-2)Man(a1-3)[Fuc(a1-3)[Gal(b1-4)]GlcNAc(b1-2)Man(a1-6)]Man(b1-4)GlcNAc(b1-4)GlcNAc
Method in brief: as §1

[20] = biological target: Fuc(a1-3)[Gal(b1-4)]GlcNAc(b1-2)Man(a1-3)[Fuc(a1-3)[Gal(b1-4)]GlcNAc(b1-2)Man(a1-6)]Man(b1-4)GlcNAc(b1-4)[Fuc(a1-6)]GlcNAc
Method in brief: as §1

[21] = biological target: Fuc(a1-3)[Gal(b1-4)]GlcNAc(b1-3)Gal(b1-3)[Fuc(a1-4)]GlcNAc
Method in brief: as §1

[22] = biological target: Fuc(a1-3)[Gal(b1-4)]GlcNAc(b1-3)Gal(b1-4)[Fuc(a1-3)]GlcNAc
Method in brief: as §1

[23] = biological target: Fuc(a1-3)[Gal(b1-4)]GlcNAc(b1-3)Gal(b1-4)[Fuc(a1-3)]GlcNAc(b1-3)Gal(b1-4)[Fuc(a1-3)]GlcNAc
Method in brief: as §1

[24] = biological target: Fuc(a1-3)[Gal(b1-4)]GlcNAc(b1-3)GalNAc
Method in brief: as §1

[25] = biological target: Fuc(a1-3)[Gal(b1-4)]GlcNAc(b1-6)GalNAc
Method in brief: as §1

[26] = biological target: Fuc(a1-3)[Gal(b1-4)]GlcNAc(b1-6)[Gal(b1-3)GlcNAc(b1-3)]Gal(b1-4)Glc
Method in brief: as §1

[27] = biological target: Fuc(a1-3)[Gal(b1-4)]GlcNAc6S
Method in brief: as §1

[28] = biological target: Fuc(a1-3)[Gal3S(b1-4)]Glc
Method in brief: as §1

[29] = biological target: Fuc(a1-3)[Gal3S(b1-4)]GlcNAc
Method in brief: as §1

[30] = biological target: Fuc(a1-3)[Gal3S(b1-4)]GlcNAc6S
Method in brief: as §1

[31] = biological target: Fuc(a1-3)[GalNAc(b1-4)]GlcNAc
Method in brief: as §1

[32] = biological target: Fuc(a1-3)[GalNAc(b1-4)]GlcNAc6S
Method in brief: as §1

Fuc(a1-4)GlcNAc = biological target: Fuc(a1-4)GlcNAc
Method in brief: as §1

Fuc(b1-3)GlcNAc = biological target: Fuc(b1-3)GlcNAc
Method in brief: as §1

Gal(a1-2)Gal = biological target: Gal(a1-2)Gal
Method in brief: as §1

Gal(a1-3)Gal = biological target: Gal(a1-3)Gal
Method in brief: as §1

B1: PX9961K-bvu-480-28-480 (Bacteroides vulgatus) (protein)
chain: NKIPTTMAFRTVTDVDNAVNGLYDLMSGSGYYGAAMFAYGDMKGDDMQSSEESGVCNTCYMFNHRPNSLNAGSLWGRPFYILREAWNILNAIAEGKIESGDEKKLNALKGETMAVIALCQFDLTRCFGYPYTKDKGASLGAPLIDHLVGTYENPPRSTVAQAYDFIIETLEEAVTLMSEEKNNGRMNKYAARALLARIYLYHDDNRKAFDLADQLIKDADTSGSYALYPHEKYVAAWSVEAKFGSESFFEIANSVDDTPGRDSWGYLLNWYGYQKGFVTQKYAEQMLADPGDVRGHLLEENKYAGKTVWWLYKLRGTDLKTAPLECNNVVLRLSEVYLIAAEAGCKLGGDAAVQGLGYLNEIVKRGNPDNEVTMADYTLDRVLDERSKELVGEGHRFFDLLRNGKTIVRKGGYHLPSVDEEVDWDFYKCVLPIPEDQFIFSPEMEQNPGYPKN
- glycan array binding signal (z-score) [1]: 0.095
- glycan array binding signal (z-score) [2]: 1.01
- glycan array binding signal (z-score) [3]: -0.06
- glycan array binding signal (z-score) [4]: -0.109
- glycan array binding signal (z-score) [5]: -0.557
- glycan array binding signal (z-score) [6]: 0.01
- glycan array binding signal (z-score) [7]: 0.284
- glycan array binding signal (z-score) [8]: -0.442
- glycan array binding signal (z-score) [9]: 0.023
- glycan array binding signal (z-score) [10]: -0.533
- glycan array binding signal (z-score) [11]: -0.293
- glycan array binding signal (z-score) [12]: 0.123
- glycan array binding signal (z-score) [13]: -0.283
- glycan array binding signal (z-score) [14]: 0.086
- glycan array binding signal (z-score) [15]: -0.496
- glycan array binding signal (z-score) (Fuc(a1-3)GlcNAc): -0.091
- glycan array binding signal (z-score) [16]: 0.583
- glycan array binding signal (z-score) [17]: 0.676
- glycan array binding signal (z-score) [18]: -0.349
- glycan array binding signal (z-score) [19]: 0.232
- glycan array binding signal (z-score) [20]: -0.345
- glycan array binding signal (z-score) [21]: -0.35
- glycan array binding signal (z-score) [22]: 0.387
- glycan array binding signal (z-score) [23]: 0.348
- glycan array binding signal (z-score) [24]: 0.085
- glycan array binding signal (z-score) [25]: 0.711
- glycan array binding signal (z-score) [26]: -0.222
- glycan array binding signal (z-score) [27]: 0.539
- glycan array binding signal (z-score) [28]: 0.709
- glycan array binding signal (z-score) [29]: -0.241
- glycan array binding signal (z-score) [30]: -0.517
- glycan array binding signal (z-score) [31]: 0.307
- glycan array binding signal (z-score) [32]: -0.604
- glycan array binding signal (z-score) (Fuc(a1-4)GlcNAc): -0.743
- glycan array binding signal (z-score) (Fuc(b1-3)GlcNAc): -0.16
- glycan array binding signal (z-score) (Gal(a1-2)Gal): 0.018
- glycan array binding signal (z-score) (Gal(a1-3)Gal): -0.487
